Consider 59 compounds from PubChem BioAssay AID651595 (National Center for Advancing Translational Sciences (NCATS), 2012).

Out of some 1,100 compounds screened, fewer than 10 were called active. About 6% were inconclusive and are not listed. Calls come from the whole dose curve; as a rule, active = well fitted cell-killing curve with a large enough effect; inconclusive = small, poorly fitted or top-dose-only effect; inactive = flat fitted curve, though single readings scatter. The list shows a part of the results.

This test in a line: qHTS of Nrf2 Activators: Hit Validation in Cytotox Assay.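 Note: compound exposure lasted 24 hours before the ATP readout; 0% is about no effect.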 The following applies: Cell viability counter-screen for Nrf2 activator hits; series mostly up to 46.1 µM; activity change, negative = cytotoxicity: at the top concentration. In a few lines: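 AREc32_fluc cells plated overnight, then treated at 7 concentrations for 24 h at 37 °C. Viability from intracellular ATP by CellTiter-Glo luminescence after 30 min at room temperature; cytotoxic compounds flagged active.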
On to `O=C(Nc1nc2ccccc2[nH]1)c1cccc([N+](=O)[O-])c1`, for which the “activity change, negative = cytotoxicity” value was inactive: 0.401%.

Turning to `Fc1ccc2cc(-c3ccsc3)ncc2c1`, the “activity change, negative = cytotoxicity” value is inactive: 12.9%. The same measure for `O=C(CSc1nccc(-c2cccs2)n1)Nc1ccc(F)c(Cl)c1`: inactive: 11.3%; for `O=c1oc(CCO)cc2ccc(C#Cc3ccsc3)cc12`: inactive: -1.14%. As for `O=C(Nc1ccc2c(c1)C(=O)NC2=O)c1ccccc1`, the figure is inactive: 0.51%; as for `CC(/C=C(\NC(=O)c1ccccc1)C(=O)N=Nc1c(O)[nH]c2ccc(C)cc12)=C\c1ccccc1`, inactive: 5.27%. For the compound `CSc1nsc(SC)c1C(=O)Nc1ccc(C)cc1`, the “activity change, negative = cytotoxicity” value was inactive: 2.05%. The same measure for `O=C(Oc1cccc2c(O)cccc12)c1ccccc1Cl`: inactive: -1.31%; for `O=C(Oc1cccc(-c2cnc3ccccc3n2)c1)c1ccco1`: inactive: -1.91%. The same measure for `O=C(/C(C=Nc1ccc(F)cc1)=C(/O)c1ccco1)C(F)(F)F`: inactive: 0.0691%; for `c1coc(CNc2ncnc3c2oc2ccccc23)c1`: inactive: 5.56%; for `S=c1[nH]nc(-c2ccc(Cl)cc2)n1/N=C/C=C/c1ccco1`: inactive: -3.1%. With `Cc1ccc(NC(=O)CC2S/C(=N/N=C/c3ccco3)NC2=O)cc1Cl` (centres undefined), the “activity change, negative = cytotoxicity” value is inactive: 5.34%.

Consider `CC(NC(=O)/C=C/c1ccco1)c1nc2ccccc2n1Cc1c(Cl)cccc1Cl` (centres undefined), for which the “activity change, negative = cytotoxicity” value was inactive: -4.44%.

Take `O=C(CSc1cccc[n+]1[O-])Nc1cc([N+](=O)[O-])ccc1Cl`: the “activity change, negative = cytotoxicity” value is inactive: -3.2%.

For `CCn1c(=N)n(CC(=O)c2cccc([N+](=O)[O-])c2)c2ccccc21`, the “activity change, negative = cytotoxicity” value is inactive: 4.32%. Regarding `O=C(/C=C/c1cccc([N+](=O)[O-])c1)n1cnc2ccccc21`, the “activity change, negative = cytotoxicity” value is inactive: -7.38%. The same measure for `CC1(O)c2ccccc2C(=O)N1CCc1ccccc1F` (centres undefined): inactive: 3.61%.

As for `Cn1c(/C(C#N)=C(\O)c2cc(Cl)sc2Cl)nc2ccccc21`, the “activity change, negative = cytotoxicity” value is inactive: -17.8%. With `S=c1[nH]nc(-c2ccco2)n1/N=C/C(Cl)=C/c1ccccc1`, the “activity change, negative = cytotoxicity” value is inactive: 1.01%. Regarding `COc1ccc(Sc2cnn(-c3ccccc3)c(=O)c2Cl)cc1`, the “activity change, negative = cytotoxicity” value is inactive: 13.3%. As for `COc1ccc(C2CC(c3cccs3)=Nc3ccccc3S2)cc1OC` (centres undefined), the figure is inactive: -3.75%.

For `COc1ccccc1NC(=O)c1cc(Cl)nc2ccccc12`, the “activity change, negative = cytotoxicity” value was inactive: 5.88%. The same measure for `O=C(Nc1nc2ccc(F)cc2s1)c1ccc([N+](=O)[O-])o1`: inactive: -20.4%. The same measure for `COC(=O)c1sccc1NC(=O)c1cccc(Cl)c1`: inactive: 6.17%. Take `Cc1cc(=O)oc2c(C(=O)/C=C\c3cccs3)c(O)ccc12`: the “activity change, negative = cytotoxicity” value was inactive: -9.76%. As for `C/C(=N\NC(=O)COc1ccccc1[N+](=O)[O-])c1cccs1`, the figure is inactive: 3.87%; as for `O=[N+]([O-])c1cccc(/C=C/c2ccccn2)c1`, inactive: -10.4%; as for `CSc1nnc(-c2ccco2)c(-c2ccco2)n1`, inactive: 6.93%.

Regarding `COc1cccc(NC(=O)c2nc(SC)ncc2Cl)c1`, the “activity change, negative = cytotoxicity” value is inactive: 9.63%. The same measure for `COc1ccc2oc3cc(Cl)ccc3c(=O)c2c1`: inactive: -1.78%; for `O=C(CCN1C(=O)/C(=C\c2ccccc2)SC1=S)N1CCCCC1`: inactive: 1.89%; for `COc1ccc(C2NC(=S)NC3=C2CCCC3=C2SCCS2)cc1` (centres undefined): inactive: -5.66%. The same measure for `O=C(NC(=S)Nc1cccc2cccnc12)c1cccs1`: inactive: 0.375%; for `CC(=O)c1cccc(NC(=O)c2cc(Cl)sc2Cl)c1`: inactive: 2.61%. As for `Clc1nc(-c2ccccc2)cc(-c2ccccc2)n1`, the figure is inactive: 2.29%; as for `CC1(C)C2C/C(=N\O)C(C)(/[N+]([O-])=C/c3cccc([N+](=O)[O-])c3)CC21` (centres undefined), inactive: -4.15%. With `c1ccc(CSc2nccc(-c3ccco3)n2)cc1`, the “activity change, negative = cytotoxicity” value is inactive: -0.113%. As for `CS/C(=C\C(=O)c1ccco1)Nc1ccccc1Cl`, the “activity change, negative = cytotoxicity” value is inactive: 1.08%.

Consider `Cc1cc(Br)ccc1NC(=O)CNC(=O)Cn1ncc(Cl)c(Cl)c1=O`, for which the “activity change, negative = cytotoxicity” value is inactive: 5.51%. For the compound `COc1cccc(-c2nc3n(n2)CCc2ccccc2-3)c1`, the “activity change, negative = cytotoxicity” value was inactive: -3.83%. Consider `CCn1nc(C)c(Br)c1-c1nc(-c2cccc(C)c2)no1`, for which the “activity change, negative = cytotoxicity” value was inactive: 7.1%. Take `O=C(CSc1ccccn1)N/N=C/c1ccccc1[N+](=O)[O-]`: the “activity change, negative = cytotoxicity” value was inactive: 2.77%. As for `Clc1ccccc1C=NNc1ccccn1`, the figure is inactive: 0.451%; as for `N/C(=N\OC(=O)c1ccccc1Cl)c1ccncc1`, inactive: 9.47%; as for `COC(=O)c1sccc1NC(=O)c1cccc(F)c1`, inactive: -0.474%.

`CCOC(=O)c1c(NC(=O)/C=C/c2ccc(C)o2)sc(C)c1C`: the “activity change, negative = cytotoxicity” value is inactive: 4.84%. As for `N#Cc1c(-c2ccccc2)cc(-c2ccccc2)[nH]c1=O`, the figure is inactive: 5.05%. As for `Clc1cccc(Cl)c1/C=N\Nc1nccs1`, the figure is inactive: 8.34%. On to `Cc1ccc(/C=C/C(=O)OCC(=O)Nc2cccnc2Cl)o1`, for which the “activity change, negative = cytotoxicity” value was inactive: 1.37%. In the case of `O=C(CSc1nnc2c(n1)[nH]c1ccccc12)NCc1ccco1`, the “activity change, negative = cytotoxicity” value is inactive: -4.51%.

For the compound `CCn1c(NC(=O)c2cccs2)nc2ccccc21`, the “activity change, negative = cytotoxicity” value was inactive: -0.196%. The same measure for `O=C(CSc1ccc(-c2ccco2)nn1)NCc1ccccc1`: inactive: 3.76%. As for `O=C(/C=C/c1ccco1)Nc1ccccc1N1CCCCC1`, the figure is inactive: 1.88%. Take `Cc1ccnc(SCC(=O)c2ccc(Br)cc2)c1C#N`: the “activity change, negative = cytotoxicity” value is inactive: -1.45%. The same measure for `COc1cc(/C=C2/NC(=O)N(c3cccc(Cl)c3)C2=O)ccc1O`: inactive: -0.822%.

In the case of `C/C(=N\Nc1ccccn1)c1ccc(Br)s1`, the “activity change, negative = cytotoxicity” value was inactive: 2.51%. As for `Cn1c(/C=C/c2cccc(Br)c2)nc2ccccc2c1=O`, the figure is inactive: -20.8%; as for `Cc1nn2c3c(cnc2c1-c1ccccc1)C(=O)CC(c1ccco1)C3` (centres undefined), inactive: -7.42%.
